Patent US20140294731A1
These are yes or no findings as the source states them, for the method shown. Some binding calls cover weakened binding; strength is not graded here.

By UniProt entry, the sequences of proteins in these tests, tags left out. Where a name states a change or a piece, a line headed by the entry shows the natural chain unless it says otherwise.
UniProt P10636: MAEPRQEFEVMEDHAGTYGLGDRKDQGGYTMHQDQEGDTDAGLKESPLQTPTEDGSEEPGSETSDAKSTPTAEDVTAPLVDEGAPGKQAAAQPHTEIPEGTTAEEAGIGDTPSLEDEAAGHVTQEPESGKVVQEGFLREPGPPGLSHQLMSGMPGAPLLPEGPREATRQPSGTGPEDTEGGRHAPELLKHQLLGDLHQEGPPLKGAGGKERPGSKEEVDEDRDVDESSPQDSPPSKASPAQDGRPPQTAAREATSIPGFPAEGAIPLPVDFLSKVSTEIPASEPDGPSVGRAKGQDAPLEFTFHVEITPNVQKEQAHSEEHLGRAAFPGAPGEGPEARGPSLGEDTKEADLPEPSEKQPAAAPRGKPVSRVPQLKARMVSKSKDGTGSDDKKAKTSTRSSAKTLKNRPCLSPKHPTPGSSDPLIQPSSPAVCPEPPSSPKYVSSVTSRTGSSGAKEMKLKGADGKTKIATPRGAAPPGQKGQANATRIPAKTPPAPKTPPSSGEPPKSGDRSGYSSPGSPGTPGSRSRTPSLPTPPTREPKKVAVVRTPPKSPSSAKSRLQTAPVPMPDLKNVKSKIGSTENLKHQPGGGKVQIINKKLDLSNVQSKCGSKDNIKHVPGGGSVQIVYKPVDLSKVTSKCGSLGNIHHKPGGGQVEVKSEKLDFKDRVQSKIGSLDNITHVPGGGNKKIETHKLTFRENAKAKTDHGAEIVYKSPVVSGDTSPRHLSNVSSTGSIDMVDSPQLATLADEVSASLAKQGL

Columns and labels:
[1] = biological target: Tau tangles in brain sections from Tau transgenic mice (hTau P301L, longest isoform 441 aa) (human) (UniProt P10636); experiment: TAUPIR immunohistochemistry on Tau transgenic mouse brain sections; grade (+++ Great binding)
[2] = biological target: full-length Tau in denatured brain homogenates from Tau transgenic mice (hTau P301L, 441 aa) (human) (UniProt P10636); experiment: Western blot of Tau transgenic mouse brain homogenates
[3] = biological target: Tau tangles in brain sections from Tau transgenic mice (hTau P301L, longest isoform 441 aa) (human) (UniProt P10636); experiment: TAUPIR immunohistochemistry, biGT mouse brain sections
[4] = biological target: full-length Tau in denatured brain homogenates from Tau transgenic mice (hTau P301L, 441 aa) (human) (UniProt P10636); experiment: Western blot of Tau transgenic mouse brain homogenates; grade
[5] = biological target: Tau tangles in brain sections from Tau transgenic mice (hTau P301L, longest isoform 441 aa) (human) (UniProt P10636); experiment: TAUPIR immunohistochemistry on Tau transgenic mouse brain sections; grade (++ Very good binding)

Measured: binding

B1: ACI-35-2A1-Ab1 (antibody, IgG2b, V domains shown)
VH: EVQLQQSGPELVKPGASVKISCKASGYTFTDYYMNWVKQSHGKSLEWIGDINPNNGGTSYNQKFKGKATLTVDKSSSTAYMELRSLTSEDSAVYYCVREGRFAYWGHGTLVTVSA
VL: DIVMTQAAPSVPVTPGESVSISCRSSKSLLHSNGNTYLYWFLQRPGQSPQLLIHRMSNLASGVPDRFSGSGSGTAFTLRISRVEAEDVGVYYCMQHLKSPYTFGGGTKLEIK
not listed: [5]
binds: all other assays above

B2: ACI-35-2G5-Ab2 (antibody, IgG2b, V domains shown)
VH: EVQLQQSGPELVKPGASVKISCKASGFTFTDYYMNWVKQSHGKSLEWIGDINPNNGGTSYHQKFKGKATLTVDKSSSTAYMELRSLTSEDSAVYYCVREGRFAYWGQGTLVTVSA
VL: DIVMTQSQKFMSTSVGDRVSVTCKASQNVGTNVAWYQQKPGQSPKALIYSASYRYSGVPDRFTGSGSGTDFTLTISNVQSEDLAEYFCQQYNSYPYTFGGGTKLEIK
not listed: [1]
binds: all other assays above

B3: ACI-35-2G5-Ab3 (antibody, IgG2b, V domains shown)
VH: EVQLQQSGPELVKPGASVKISCKASGFTFTDYYMNWVKQSHGKSLEWIGDINPNNGGTSYHQKFKGKATLTVDKSSSTAYMELRSLTSEDSAVYYCVREGRFAYWGQGTLVTVSA
VL: DIVMTQSQKFMSTSVGDRVSVTCKASQNVGTNVAWYQQKPGQSPKALIYSASYRYSGVPDRFTGSGSGTDFTLTISNVQSEDLAEYFCQQYNSYPYTFGGGTKLEIK
not listed: [1]
binds: all other assays above
